Experimental data published in patent US20220002426A1.
Results are given in words; binding and its absence hold for the method and conditions named. Binding can be weak; no strength is given.

Chains of the proteins cited; added tags and fusions are not shown. Lines headed by an entry give the natural chain unless they say otherwise; changes in a name come on top.
UniProt P20333: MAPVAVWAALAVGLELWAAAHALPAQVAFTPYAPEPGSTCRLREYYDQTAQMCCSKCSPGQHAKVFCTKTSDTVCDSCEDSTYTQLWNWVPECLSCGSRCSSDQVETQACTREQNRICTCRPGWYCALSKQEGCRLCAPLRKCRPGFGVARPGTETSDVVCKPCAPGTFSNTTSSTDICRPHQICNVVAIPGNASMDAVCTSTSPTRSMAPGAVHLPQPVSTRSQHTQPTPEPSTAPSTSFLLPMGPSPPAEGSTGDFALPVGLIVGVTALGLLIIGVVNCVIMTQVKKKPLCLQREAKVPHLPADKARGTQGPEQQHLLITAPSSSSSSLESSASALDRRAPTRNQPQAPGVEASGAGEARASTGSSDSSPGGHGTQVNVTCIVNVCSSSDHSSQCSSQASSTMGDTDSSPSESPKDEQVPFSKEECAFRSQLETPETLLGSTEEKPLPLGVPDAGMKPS

Key:
[1] = target: hTNFR2-Δ2 (human); assay: FACS, transfected HEK293
[2] = target: hTNFR2-Δ1 (human) (UniProt P20333); assay: FACS, transfected HEK293
[3] = target: hTNFR2-Δ2 (human); assay: FACS, transfected HEK293 cells
[4] = target: hTNFR2-Δ1 (human) (UniProt P20333); assay: FACS, transfected HEK293 cells
[5] = target: hTNFR2-Δ1 + 3 (human) (UniProt P20333); assay: FACS, transfected HEK293
[6] = target: hTNFR2-Δ1 + 3 (human) (UniProt P20333); assay: FACS, transfected HEK293 cells
[7] = target: hTNFR2-Δ2 + 4 (human) (UniProt P20333); assay: FACS, transfected HEK293
[8] = target: hTNFR2-Δ2 + 4 (human) (UniProt P20333); assay: FACS, transfected HEK293 cells
[9] = target: hTNFR2-Δ4 (human) (UniProt P20333); assay: FACS, transfected HEK293 cells

Measured: binding

B1: 001-F02 (antibody, V domains shown)
VH: EVQLLESGGGLVQPGGSLRLSCAASGFTFSDYYMSWVRQAPGKGLEWVANINTDGSEKYYLDSVKGRFTISRDNSKNTLYLQMNSLRAEDTAVYYCAREEYGAFDIWGQGTLVTVSS
VL: QSVLTQPPSASGTPGQRVTISCSGSSSNIGSNTVNWYQQLPGTAPKLLIYDNNKRPSGVPDRFSGSKSGTSASLAISGLRSEDEADYYCQSFDRGLSGSIVFGGGTKLTVLG
binds: [1] | [2] | [3] | [4]

B2: 001-F06 (antibody, V domains shown)
VH: EVQLLESGGGLVQPGGSLRLSCAASGFTFSSYAMHWVRQAPGKGLEWVSAISGGATTTYYADSVKGRFTISRDNSKNTLYLQMNSLRAEDTAVYYCAKGGTGDPYYFDYWGQGTLVTVSS
VL: QSVLTQPPSASGTPGQRVTISCTGSSSNIGAGYDVHWYQQLPGTAPKLLIYRNNQRPSGVPDRFSGSKSGTSASLAISGLRSEDEADYYCAARDDGLSGPVFGGGTKLTVLG
not listed: [7] | [8] | [9]
binds: all other assays above

B3: 001-G10 (antibody, V domains shown)
VH: EVQLLESGGGLVQPGGSLRLSCAASGFTFSAYGMHWVRQAPGKGLEWVAVVSYDGREKHYADSVKGRFTISRDNSKNTLYLQMNSLRAEDTAVYYCARSDGGYDSDSGYYWGQGTLVTVSS
VL: QSVLTQPPSASGTPGQRVTISCSGSTSNIGSNFVYWYQQLPGTAPKLLIYDNNKRPSGVPDRFSGSKSGTSASLAISGLRSEDEADYYCSSYAYSDNILFGGGTKLTVLG
binds: [3] | [4]

B4: 001-H10 (antibody, V domains shown)
VH: EVQLLESGGGLVQPGGSLRLSCAASGFTFDDYGMSWVRQAPGKGLEWVSVIYSGGSTYYADSVKGRFTISRDNSKNTLYLQMNSLRAEDTAVYYCARDRSSSWYRDGMDVWGQGTLVTVSS
VL: QSVLTQPPSASGTPGQRVTISCTGSSSNIGAGYDVHWYQQLPGTAPKLLIYGNSNRPSGVPDRFSGSKSGTSASLAISGLRSEDEADYYCAAWDDSLSGWVFGGGTKLTVLG
not listed: [5] | [6]
binds: all other assays above

B5: 004-E08 (antibody, V domains shown)
VH: EVQLLESGGGLVQPGGSLRLSCAASGFTFSRYWMHWVRQVPGKGLEWVSGISDSGVVTYYADSVKGRFTISRDNSKNTLYLQMNSLRAEDTAVYYCARAQSVAFDIWGQGTLVTVSS
VL: QSVLTQPPSASGTPGQRVTISCSGSSSNIGAGHDVHWYQQLPGTAPKLLIYYDDLLPSGVPDRFSGSKSGTSASLAISGLRSEDEADYYCAAWDDSLSGWVFGGGTKLTVLG
binds: [1] | [2] | [3] | [4]
